Data from the supplement of paper PMC10849652.
The other results are listed elsewhere or left out. Residues, ends and D or L forms follow the SMILES beside them. *: point of attachment. Cbz = O=C(OCc1ccccc1)*

Chains of the proteins cited; added tags and fusions are not shown. Lines headed by an entry give the natural chain unless they say otherwise; changes in a name come on top.
UniProt Q9P0R6: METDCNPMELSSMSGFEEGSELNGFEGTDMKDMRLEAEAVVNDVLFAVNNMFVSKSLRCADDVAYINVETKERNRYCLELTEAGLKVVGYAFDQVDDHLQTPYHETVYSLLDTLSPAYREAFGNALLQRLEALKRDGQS
UniProt O75367, whole entry, looked up: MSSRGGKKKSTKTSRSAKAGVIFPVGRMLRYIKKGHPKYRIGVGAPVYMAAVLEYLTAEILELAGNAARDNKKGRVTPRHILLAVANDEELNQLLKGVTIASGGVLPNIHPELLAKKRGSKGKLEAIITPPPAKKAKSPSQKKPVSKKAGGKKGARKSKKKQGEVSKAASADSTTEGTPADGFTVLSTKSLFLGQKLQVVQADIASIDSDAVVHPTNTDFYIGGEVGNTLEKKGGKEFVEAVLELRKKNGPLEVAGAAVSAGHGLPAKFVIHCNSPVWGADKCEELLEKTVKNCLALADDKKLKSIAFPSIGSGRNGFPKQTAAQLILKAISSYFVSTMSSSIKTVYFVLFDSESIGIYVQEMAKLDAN
UniProt Q9H6D7: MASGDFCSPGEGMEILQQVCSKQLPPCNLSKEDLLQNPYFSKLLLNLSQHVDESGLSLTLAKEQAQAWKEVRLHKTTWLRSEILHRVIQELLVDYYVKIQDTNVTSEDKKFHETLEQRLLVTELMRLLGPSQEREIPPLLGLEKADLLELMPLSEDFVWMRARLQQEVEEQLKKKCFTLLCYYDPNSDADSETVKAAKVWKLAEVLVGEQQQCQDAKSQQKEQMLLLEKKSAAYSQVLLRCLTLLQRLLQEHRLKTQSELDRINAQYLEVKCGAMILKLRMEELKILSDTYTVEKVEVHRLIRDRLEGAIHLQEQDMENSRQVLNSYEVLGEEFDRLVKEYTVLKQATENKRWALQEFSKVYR
UniProt Q9BY41: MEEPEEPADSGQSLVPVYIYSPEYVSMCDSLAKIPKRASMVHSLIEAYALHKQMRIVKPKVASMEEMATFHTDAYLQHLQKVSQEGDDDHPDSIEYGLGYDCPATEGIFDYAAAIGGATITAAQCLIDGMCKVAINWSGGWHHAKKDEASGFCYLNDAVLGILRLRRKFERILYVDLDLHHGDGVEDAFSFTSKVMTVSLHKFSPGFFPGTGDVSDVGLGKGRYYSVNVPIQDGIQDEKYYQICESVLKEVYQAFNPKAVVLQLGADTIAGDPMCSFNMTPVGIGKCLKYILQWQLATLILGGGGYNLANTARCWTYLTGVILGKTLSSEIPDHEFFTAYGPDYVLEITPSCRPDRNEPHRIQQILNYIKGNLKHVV

Assays:
Assay in all cases: log2 fold change, soluble protein after heating vs DMSO (PISA); higher = thermal stabilisation; K562 cells, 10 uM, 30 min; active = over 0.2 and 3.5 SD of the protein, either way, in both replicates (recomputed)
[1] = compound: C1COCCN1CCN2C3=CC=CC=C3N=C2NC(=O)C4=CC(=CC=C4)[N+](=O)[O-] [IRAK-1-4 Inhibitor I]
In short: (§1)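 Quantification of soluble protein used TMTpro 16plex LC-MS/MS, with channel sums equalised. Samples were the supernatant after 21,000xg for 90 min of pooled aliquots from K562 cells (2×10^6 cells/mL) treated with 10 μM compound for 30 min, heated for 3 min over 48°C-58°C, and extracted in PBS with 0.5% NP-40 at 4°C. Values, from duplicates, describe thermal stability against control samples on a log2 fold-change scale.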

[2] = compound: C=CC(=O)N1CCC[C@@H](n2nc(-c3ccc(Oc4ccccc4)cc3)c3c(N)ncnc32)C1 [ibrutinib]
In short: as §1

[3] = compound: CC(=O)c1cnc2ccc(-c3cc(Cl)c(O)c(Cl)c3)nc2c1N[C@H]1CC[C@H](CN(C)C)CC1
In short: as §1

[4] = compound: CC(C)(C)Cn1c(N)nc2ccc(-c3[nH]c(C(C)(C)C)nc3-c3ccc(F)cc3)nc21 [ralimetinib]
In short: as §1

[5] = compound: CC(C)C1=C2N=C(C=C(N2N=C1)NCC3=CC=CC=C3)NCCCCCCN
In short: as §1

[6] = compound: CC(C)C[C@@H](C=O)NC(=O)[C@H](CC(C)C)NC(=O)[C@H](CC(C)C)NC(=O)OCc1ccccc1
In short: as §1

[7] = compound: CC(C)N(C[C@H]1O[C@@H](n2cnc3c(N)ncnc32)[C@H](O)[C@@H]1O)[C@H]1C[C@@H](CCc2nc3cc(C(C)(C)C)ccc3[nH]2)C1 [pinometostat]
In short: as §1

[8] = compound: CC1=C(C(CC(=O)N1)C2=CC=C(C=C2)C(F)(F)F)C(=O)NC3=C(C=C4C(=C3)C=NN4)F
In short: as §1

[9] = compound: CC1=C(C2=C(C=C1)C(=O)C3=CC=CC=C3N2CCCN)C
In short: as §1

[10] = compound: CC1=C(C=C(C=C1)NC(=O)C2=CC(=CC=C2)N(C)C)NC(=O)C3=CC=C(C=C3)O
In short: as §1

[11] = compound: CC1=CC=C(C=C1)SC2=C3C=C(SC3=CN=C2)C(=O)N
In short: as §1

[12] = compound: CC1=NC(=CC=C1)C2=C(N=C(N2)C(C)(C)C)C3=CC4=NC=CN=C4C=C3
In short: as §1

[13] = compound: CCCS(=O)(=O)Nc1ccc(F)c(C(=O)c2c[nH]c3ncc(-c4ccc(Cl)cc4)cc23)c1F [vemurafenib]
In short: as §1

[14] = compound: CCCS(=O)(=O)Nc1ccc(F)c(C(=O)c2c[nH]c3ncc(Cl)cc23)c1F
In short: as §1

[15] = compound: CCCc1cc(C)[nH]c(=O)c1CNC(=O)c1cc(-c2ccnc(N3CCN(C)CC3)c2)cc2c1cnn2C(C)C
In short: as §1

[16] = compound: CCN(CC)Cc1ccc2cc(COC(=O)Nc3ccc(C(=O)NO)cc3)ccc2c1 [givinostat]
In short: as §1

[17] = compound: CCN(CCCOc1ccc2c(Nc3cc(CC(=O)Nc4cccc(F)c4)[nH]n3)ncnc2c1)CCOP(=O)(O)O [barasertib]
In short: as §1

[18] = compound: CC(C)(O)CC(=O)NCCn1ccc2ncnc(Nc3ccc(Oc4cccc(C(F)(F)F)c4)c(Cl)c3)c21
In short: as §1

[19] = compound: CCCCN(Cc1ccc(C(=O)NO)cc1)C(=O)Nc1ccccc1 [Nexturastat A]
In short: as §1

[20] = compound: CC1=C(C=C(C=C1)NC(=O)C2=CC(=CC=C2)C(C)(C)C#N)NC3=CC4=C(C=C3)N=CN(C4=O)C
In short: as §1

Target	log2 fold change [1]	log2 fold change [2]	log2 fold change [3]	log2 fold change [4]	log2 fold change [5]	log2 fold change [6]	log2 fold change [7]	log2 fold change [8]	log2 fold change [9]	log2 fold change [10]	log2 fold change [11]	log2 fold change [12]	log2 fold change [13]	log2 fold change [14]	log2 fold change [15]	log2 fold change [16]	log2 fold change [17]	log2 fold change [18]	log2 fold change [19]	log2 fold change [20]
GSKIP (UniProt Q9P0R6)	inactive: 0.008	inactive: 0	inactive: 0.225	inactive: -0.081	inactive: -0.043	inactive: -0.074	inactive: 0.004	inactive: 0.043	inactive: 0.221	inactive: -0.111	inactive: 0.102	inactive: -0.072	inactive: -0.103	inactive: -0.077	inactive: -0.027	inactive: -0.035	inactive: 0.041	–	–	–
H2AFY (UniProt O75367)	inactive: -0.181	inactive: -0.003	–	inactive: 0.097	inactive: -0.019	inactive: 0.086	inactive: 0.196	inactive: -0.045	inactive: 0.211	inactive: 0.064	inactive: -0.188	inactive: -0.099	–	inactive: 0.393	inactive: 0.61	inactive: 0.347	inactive: -0.099	inactive: -0.148	inactive: 0.721	–
HAUS4 (UniProt Q9H6D7)	–	inactive: 0.103	inactive: -0.107	inactive: 0.112	active: -0.51	inactive: 0.139	–	–	inactive: 0.048	inactive: 0.003	inactive: 0.084	–	inactive: -0.049	inactive: 0.012	inactive: -0.269	inactive: 0.08	inactive: -0.16	inactive: 0.246	inactive: -0.061	inactive: -0.143
HDAC8 (UniProt Q9BY41)	–	–	–	–	–	–	–	–	–	–	–	–	–	–	–	–	–	inactive: -0.219	inactive: 0.993	–
